Assay results: article doi:10.1101/2022.09.12.507586
No constants are given. Whether binding was seen depends on the method and setting. Binding calls can cover weak binding; strength is not graded here. Sequences can lack the tags named with a protein.

Molecular target: PomY-mCh (His6-tagged full-length PomY with mCherry tag) (Myxococcus xanthus)
Test: confocal fluorescence microscopy of purified proteins

binding: binds
B1: A488-FtsZ (Cys-tagged FtsZ labelled with Alexa488) (protein, UniProt Q1D0T7 1-405)
chain: MDQFDQNKQAAKIRVVGAGGAGCNAVNTMILSKLDRVDFIAANTDVQALAASKAPTRLQLGQTLTKGLGAGANPEMGREAALESRDQIAAVLEGADMVFVTAGMGGGTGTGAAPIIADIAKSLGCLTVGVVTKPFLFEGNKRRKQAEQGIVELKAAVDTLITIPNQRLLSLSNEPMPLLETFKRADEVLLNAVQGISDLIQYHGYINVDFADVKTIMSDKGIALMGTGNSTGDKRALIAMQQAIASPLLEDVTIDGATGLLINITGGRDMTLQEVNEALTLVHDAADSEAEIIFGSLIDENISDEVKITIIATGFVHRDAPKVRTVAPVVQVPLSRPAPSVLANAREEVASLVPTKGSGSRPLTVESAKSVSARTAVVKDAPLPLDEDQFDIPTFLRRQGQTELP
modifications: Alexa488 on the Cys-tag
